Reference: paper doi:10.1101/2025.11.01.685922
These are yes or no findings as the source states them, for the method shown. In cells and extracts the contact can be indirect. Binding can be weak; no strength is given. For part of these data: Sequences can lack the tags named with a protein.

The chains behind the UniProt entries cited, without tags or fusion partners. Where a name states a change or a piece, a line headed by the entry shows the natural chain unless it says otherwise.
UniProt P10644: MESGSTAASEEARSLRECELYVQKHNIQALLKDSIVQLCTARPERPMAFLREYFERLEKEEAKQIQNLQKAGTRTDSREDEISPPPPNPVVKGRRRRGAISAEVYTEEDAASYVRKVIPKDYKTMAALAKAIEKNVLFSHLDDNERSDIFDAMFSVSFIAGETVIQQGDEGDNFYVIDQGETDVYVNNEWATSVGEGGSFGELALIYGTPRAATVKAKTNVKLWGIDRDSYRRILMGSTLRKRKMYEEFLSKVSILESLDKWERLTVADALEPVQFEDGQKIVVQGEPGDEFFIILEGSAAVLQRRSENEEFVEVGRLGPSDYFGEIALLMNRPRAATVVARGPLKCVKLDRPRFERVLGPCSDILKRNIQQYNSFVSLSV
UniProt Q9DBC7: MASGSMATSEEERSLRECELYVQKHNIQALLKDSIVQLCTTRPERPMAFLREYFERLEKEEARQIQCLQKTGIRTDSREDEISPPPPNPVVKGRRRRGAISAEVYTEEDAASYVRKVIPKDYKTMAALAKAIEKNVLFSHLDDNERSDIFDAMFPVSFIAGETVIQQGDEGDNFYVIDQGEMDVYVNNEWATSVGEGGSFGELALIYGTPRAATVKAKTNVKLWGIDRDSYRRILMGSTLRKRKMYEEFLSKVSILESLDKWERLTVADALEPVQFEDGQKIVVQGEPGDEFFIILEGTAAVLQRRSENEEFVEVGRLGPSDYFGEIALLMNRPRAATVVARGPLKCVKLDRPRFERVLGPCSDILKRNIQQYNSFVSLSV

What was measured:
Assay in all cases: co-IP
[1] = biological target: T1, FAM134B-V5, wild-type full-length (FL), stably expressed in PDAC cells (mouse) (UniProt Q8VE91)
T1 sequence: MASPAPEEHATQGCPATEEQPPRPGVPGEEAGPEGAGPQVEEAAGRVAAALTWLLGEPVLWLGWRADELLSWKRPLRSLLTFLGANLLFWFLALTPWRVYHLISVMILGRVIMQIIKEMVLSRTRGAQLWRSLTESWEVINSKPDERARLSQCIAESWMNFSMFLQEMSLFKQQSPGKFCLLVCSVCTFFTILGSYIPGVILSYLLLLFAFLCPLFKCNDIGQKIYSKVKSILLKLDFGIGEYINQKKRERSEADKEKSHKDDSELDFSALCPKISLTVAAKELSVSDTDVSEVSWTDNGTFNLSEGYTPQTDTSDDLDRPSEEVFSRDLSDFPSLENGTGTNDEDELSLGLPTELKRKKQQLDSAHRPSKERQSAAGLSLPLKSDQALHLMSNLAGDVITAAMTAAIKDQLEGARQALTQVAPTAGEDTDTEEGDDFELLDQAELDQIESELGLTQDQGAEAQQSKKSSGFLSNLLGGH

FAM134B-V5 ΔINT (mouse) = FAM134B-V5 ΔINT (mouse) (UniProt Q8VE91)
[2] = biological target: FAM134B-V5 mtLIR (mutant LIR) (mouse) (UniProt Q8VE91)

binding [1]	binding (FAM134B-V5 ΔINT (mouse))	binding [2]	Substance
binds			GFP-PRKAR1A mtPS (PKA-binding deficient point mutant) (from UniProt P10644)
	binds	binds	PRKAR1A, endogenous in PDAC cells (from UniProt Q9DBC7 1-381)
